Assay results taken from US20210024639A1 (AGOMAB THERAPEUTICS, published 2021).
No constants are given. Whether binding was seen depends on the method and setting. Some entries that bind do so weakly or less than the wild type.

Amino acid sequences for entries named in this document (tags omitted). A change or cut given only in a name is not applied to a line headed by its entry. Residues count along the entry.
UniProt P08581: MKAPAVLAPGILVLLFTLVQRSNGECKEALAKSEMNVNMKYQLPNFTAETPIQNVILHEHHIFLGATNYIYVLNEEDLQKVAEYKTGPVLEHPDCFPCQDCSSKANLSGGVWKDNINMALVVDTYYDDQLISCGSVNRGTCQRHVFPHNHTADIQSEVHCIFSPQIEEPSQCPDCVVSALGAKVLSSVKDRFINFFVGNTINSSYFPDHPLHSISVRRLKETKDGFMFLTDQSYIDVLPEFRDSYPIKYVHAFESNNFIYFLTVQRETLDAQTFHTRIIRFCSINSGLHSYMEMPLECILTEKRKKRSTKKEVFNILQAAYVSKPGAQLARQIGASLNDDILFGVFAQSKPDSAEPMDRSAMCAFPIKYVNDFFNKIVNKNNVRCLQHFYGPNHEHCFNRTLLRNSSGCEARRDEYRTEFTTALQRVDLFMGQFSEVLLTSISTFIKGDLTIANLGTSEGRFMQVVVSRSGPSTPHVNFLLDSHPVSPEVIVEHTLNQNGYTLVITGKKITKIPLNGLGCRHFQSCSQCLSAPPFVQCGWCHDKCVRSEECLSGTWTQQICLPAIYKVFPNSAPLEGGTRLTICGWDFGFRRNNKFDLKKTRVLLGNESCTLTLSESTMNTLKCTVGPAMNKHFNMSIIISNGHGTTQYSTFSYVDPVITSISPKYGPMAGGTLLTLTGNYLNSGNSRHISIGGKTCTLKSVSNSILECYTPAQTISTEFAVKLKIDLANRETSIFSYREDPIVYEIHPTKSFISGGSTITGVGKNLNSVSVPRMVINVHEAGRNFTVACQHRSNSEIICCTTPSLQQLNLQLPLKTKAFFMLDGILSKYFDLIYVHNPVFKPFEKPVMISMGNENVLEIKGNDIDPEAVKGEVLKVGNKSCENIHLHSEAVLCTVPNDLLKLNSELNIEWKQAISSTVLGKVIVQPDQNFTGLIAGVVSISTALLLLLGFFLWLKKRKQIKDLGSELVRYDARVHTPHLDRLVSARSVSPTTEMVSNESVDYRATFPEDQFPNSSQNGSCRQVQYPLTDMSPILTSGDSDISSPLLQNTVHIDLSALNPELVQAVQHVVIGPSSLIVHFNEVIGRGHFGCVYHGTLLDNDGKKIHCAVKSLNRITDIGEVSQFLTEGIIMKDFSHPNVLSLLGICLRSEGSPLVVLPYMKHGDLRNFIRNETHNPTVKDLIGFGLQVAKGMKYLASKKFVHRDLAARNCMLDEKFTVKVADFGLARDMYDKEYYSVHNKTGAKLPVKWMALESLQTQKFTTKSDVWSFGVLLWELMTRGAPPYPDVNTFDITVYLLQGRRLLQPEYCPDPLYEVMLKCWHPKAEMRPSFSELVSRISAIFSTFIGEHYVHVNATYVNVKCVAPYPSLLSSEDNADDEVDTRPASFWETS
SEMA-PSI-IPT 1-2 (human MET ECD lacking IPT domains 3 and 4): residues 25-741 of P08581
SEMA-PSI (human MET ECD lacking IPT domains 1-4): residues 25-562 of P08581
isolated SEMA domain of human MET: residues 27-515 of P08581

Legend:
Assay in all cases: ELISA, MET deletion mutant in solid phase, mAb 0-50 nM
[1] = target: SEMA-PSI (human MET ECD lacking IPT domains 1-4) (human) (UniProt P08581)
[2] = target: SEMA-PSI-IPT 1-2 (human MET ECD lacking IPT domains 3 and 4) (human) (UniProt P08581)
[3] = target: isolated SEMA domain of human MET (human) (UniProt P08581)

B1: chimeric llama-human IgG1 mAb 76H10 (antibody, V domains shown)
VH: QLQLVESGGGLVQPGGSLRVSCTASGFTFNTYYMTWVRQAPGKGLEWVSDINSGGGTYYADSVKGRFTISRDNAKNTLYLQMNSLKPEDTALYYCVRVRIWPVGYDYWGQGTQVTVSS
VL: QAVVTQEPSLSVSPGGTVTLTCGLSSGSVTTSNYPGWFQQTPGQAPRTLIYNTNNRHSGVPSRFSGSISGNKAALTITGAQPEDEADYYCSLYTGSYTTVFGGGTHLTVL
binding [1]: binds
binding [2]: binds

B2: chimeric llama-human IgG1 mAb 71G3 (antibody, V domains shown)
VH: QVQLVESGGGLVQPGGSLRVSCAASGFTFSTYYMSWVRQAPGKGLEWVSDIRTDGGTYYADSVKGRFTMSRDNAKNTLYLQMNSLKPEDTALYYCARTRIFPSGYDYWGQGTQVTVSS
VL: QAVVTQEPSLSVSPGGTVTLTCGLSSGSVTTSNYPGWFQQTPGQAPRTLIYNTNSRHSGVPSRFSGSISGNKAALTIMGAQPEDEADYYCSLYPGSTTVFGGGTHLTVL
binding [1]: binds
binding [2]: binds

B3: chimeric llama-human IgG1 mAb 71D6 (antibody, V domains shown)
VH: ELQLVESGGGLVQPGGSLRLSCAASGFTFSSYGMSWVRQAPGKGLEWVSAINSYGGSTSYADSVKGRFTISRDNAKNTLYLQMNSLKPEDTAVYYCAKEVRADLSRYNDYESYDYWGQGTQVTVSS
VL: QPVLNQPSALSVTLGQTAKITCQGGSLGARYAHWYQQKPGQAPVLVIYDDDSRPSGIPERFSGSSSGGTATLTISGAQAEDEGDYYCQSADSSGSVFGGGTHLTVL
binding [1]: binds
binding [2]: binds
binding [3]: binds

B4: chimeric llama-human IgG1 mAb 71C3 (antibody, V domains shown)
VH: QLQLVESGGGLVQPGGSLRLSCAASGFTFSSHAMSWVRQAPGKGLEWVSAINSGGGSTSYADSVKGRFTISRDNAKNTLYLQMNSLKPEDTAVYYCAKELRFDLARYTDYEAWDYWGQGTQVTVSS
VL: SYELTQPSALSVTLGQTAKITCQGGSLGSSYAHWYQQKPGQAPVLVIYDDDSRPSGIPERFSGSSSGGTATLTISGAQAEDEGDYYCQSADSSGNAAVFGGGTHLTVL
binding [1]: binds
binding [2]: binds
binding [3]: binds

B5: chimeric llama-human IgG1 mAb 71D4 (antibody, V domains shown)
VH: ELQLVESGGGLVQPGGSLRLSCAASGFTFSGYGMSWVRQAPGKGLEWVSDINSGGGSTSYADSVKGRFTISRDNAKNTLYLQMNSLKPEDTAVYYCAKDMRLYLARYNDYEAWDYWGQGTQVTVSS
VL: SSALTQPSALSVTLGQTAKITCQGGSLGSSYAHWYQQKPGQAPVLVIYDDDSRPSGIPERFSGSSSGGTATLTISGAQAEDEGDYYCQSADSSGNAAVFGGGTHLTVL
binding [1]: binds
binding [2]: binds
binding [3]: binds

B6: chimeric llama-human IgG1 mAb 71A3 (antibody, V domains shown)
VH: EVQLVESGGGLVQPGGSLRLSCAASGFSFKDYDITWVRQAPGKGLEWVSTITSRSGSTSYVDSVKGRFTISGDNAKNTLYLQMNSLKPEDTAVYYCAKVYATTWDVGPLGYGMDYWGKGTLVTVSS
VL: SYELTQPSALSVTLGQTAKITCQGGSLGSSYAHWYQQKPGQAPVLVIYDDDSRPSGIPERFSGSSSGGTATLTISGAQAEDEGDYYCQSADSSGNAAVFGGGTHLTVL
binding [1]: binds
binding [2]: binds
binding [3]: binds

B7: chimeric llama-human IgG1 mAb 71G2 (antibody, V domains shown)
VH: EVQLQESGGGLVQPGGSLRLSCAASGFTFSIYDMSWVRQAPGKGLEWVSTINSDGSSTSYVDSVKGRFTISRDNAKNTLYLQMNSLKPEDTAVYYCAKVYGSTWDVGPMGYGMDYWGKGTLVTVSS
VL: SSALTQPSALSVSLGQTARITCQGGSLGSSYAHWYQQKPGQAPVLVIYGDDSRPSGIPERFSGSSSGGTATLTISGAQAEDEDDYYCQSTDSSGNTVFGGGTRLTVL
binding [1]: binds
binding [2]: binds
binding [3]: binds

B8: chimeric llama-human IgG1 mAb 76G7 (antibody, V domains shown)
VH: QVQLVESGGNLVQPGGSLRLSCAASGFTFSNYYMSWVRQAPGKGLEWVSDIYSDGSTTWYSDSVKGRFTISRDNAKNTLSLQMNSLKSEDTAVYYCARVKIYPGGYDAWGQGTQVTVSS
VL: QAGLTQPPSVSGSPGKTVTISCAGNSSDVGYGNYVSWYQQFPGMAPKLLIYLVNKRASGITDRFSGSKSGNTASLTISGLQSEDEADYYCASYTGSNNIVFGGGTHLTVL
binding [1]: binds
binding [2]: binds

B9: chimeric llama-human IgG1 mAb 71G12 (antibody, V domains shown)
VH: QVQLQESGGDLVQPGGSLRVSCVVSGFTFSRYYMSWVRQAPGKGLEWVSSIDSYGYSTYYTDSVKGRFTISRDNAKNTLYLQMNSLKPEDTALYYCARAKTTWSYDYWGQGTQVTVSS
VL: EIVLTQSPSSVTASVGGKVTINCKSSQSVFIASNQKTYLNWYQQRPGQSPRLVISYASTRESGIPDRFSGSGSTTDFTLTISSVQPEDAAVYYCQQAYSHPTFGQGTKVELK
binding [1]: binds
binding [2]: binds

B10: chimeric llama-human IgG1 mAb 74C8 (antibody, V domains shown)
VH: EVQLVESGGGLVQPGGSLRLSCAASGFTFRNYHMSWVRQVPGKGFEWISDINSAGGSTYYADSVKGRFTISRDNAKNTLYLEMNSLKPEDTALYYCARVNVWGVNYWGKGTLVSVSS
VL: QTVVTQEPSLSVSPGGTVTLTCGLSSGSVTTSNYPGWFQQTPGQAPRTLIYNTNSRHSGVPSRFSGSISGNKAALTITGAQPEDEADYYCSLYPGSYTNVFGGGTHLTVL
binding [1]: binds
binding [2]: binds
binding [3]: binds

B11: chimeric llama-human IgG1 mAb 72F8 (antibody, V domains shown)
VH: ELQLVESGGGLVQPGGSLRLSCAASGFTFSNYVMSWVRQAPGKGLEWVSDTNSGGSTSYADSVKGRFTISRDNAKNTLYLQMNSLKPEDTALYYCARSFFYGMNYWGKGTQVTVSS
VL: QSALTQPPSLSASPGSSVRLTCTLSSGNNIGSYDISWYQQKAGSPPRYLLNYYTDSRKHQDSGVPSRFSGSKDASANAGLLLISGLQPEDEADYYCSAYKSGSYRWVFGGGTHVTVL
binding [1]: binds
binding [2]: binds
binding [3]: binds
